Assay results: paper PMC4017094, “Mouse SLX4 Is a Tumor Suppressor that Stimulates the Activity of the Nuclease XPF-ERCC1 in DNA Crosslink Repair” (Molecular Cell, 2014)
No constants are given. Whether binding was seen depends on the method and setting. For part of these data: In cells and extracts the contact can be indirect. Some results given as binding are weak or reduced against the parent protein; the word gives no strength. For part of these data: Sequences can lack the tags named with a protein.

T1: FLAG-tagged mini-SLX4 (SLX4 1-758) (mouse) (UniProt Q6P1D7)
T1 sequence: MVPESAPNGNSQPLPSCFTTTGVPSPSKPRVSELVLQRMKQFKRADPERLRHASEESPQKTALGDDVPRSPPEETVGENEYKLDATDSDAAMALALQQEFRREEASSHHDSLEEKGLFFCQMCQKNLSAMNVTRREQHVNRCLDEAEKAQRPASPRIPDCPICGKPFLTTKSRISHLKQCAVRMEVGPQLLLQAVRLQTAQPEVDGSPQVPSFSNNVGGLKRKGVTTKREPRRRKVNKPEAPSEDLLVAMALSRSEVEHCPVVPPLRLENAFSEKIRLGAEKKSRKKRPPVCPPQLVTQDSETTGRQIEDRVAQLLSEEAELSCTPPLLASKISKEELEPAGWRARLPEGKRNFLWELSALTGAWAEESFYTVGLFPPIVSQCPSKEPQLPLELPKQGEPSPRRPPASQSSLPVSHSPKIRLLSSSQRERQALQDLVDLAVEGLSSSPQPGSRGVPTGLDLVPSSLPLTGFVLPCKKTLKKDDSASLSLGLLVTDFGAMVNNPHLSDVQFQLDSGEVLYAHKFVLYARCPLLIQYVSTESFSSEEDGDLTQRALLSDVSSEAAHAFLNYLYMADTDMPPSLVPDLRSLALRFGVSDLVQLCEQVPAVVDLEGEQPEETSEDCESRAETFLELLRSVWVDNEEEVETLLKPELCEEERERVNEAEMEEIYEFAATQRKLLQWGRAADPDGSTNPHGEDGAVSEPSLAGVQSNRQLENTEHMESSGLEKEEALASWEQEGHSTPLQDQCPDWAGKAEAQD

T2: XPF-ERCC1 nuclease (XE), recombinant (UniProt Q9QZD4 1-917; P07903 1-298)
T2 sequence (looked up) 1: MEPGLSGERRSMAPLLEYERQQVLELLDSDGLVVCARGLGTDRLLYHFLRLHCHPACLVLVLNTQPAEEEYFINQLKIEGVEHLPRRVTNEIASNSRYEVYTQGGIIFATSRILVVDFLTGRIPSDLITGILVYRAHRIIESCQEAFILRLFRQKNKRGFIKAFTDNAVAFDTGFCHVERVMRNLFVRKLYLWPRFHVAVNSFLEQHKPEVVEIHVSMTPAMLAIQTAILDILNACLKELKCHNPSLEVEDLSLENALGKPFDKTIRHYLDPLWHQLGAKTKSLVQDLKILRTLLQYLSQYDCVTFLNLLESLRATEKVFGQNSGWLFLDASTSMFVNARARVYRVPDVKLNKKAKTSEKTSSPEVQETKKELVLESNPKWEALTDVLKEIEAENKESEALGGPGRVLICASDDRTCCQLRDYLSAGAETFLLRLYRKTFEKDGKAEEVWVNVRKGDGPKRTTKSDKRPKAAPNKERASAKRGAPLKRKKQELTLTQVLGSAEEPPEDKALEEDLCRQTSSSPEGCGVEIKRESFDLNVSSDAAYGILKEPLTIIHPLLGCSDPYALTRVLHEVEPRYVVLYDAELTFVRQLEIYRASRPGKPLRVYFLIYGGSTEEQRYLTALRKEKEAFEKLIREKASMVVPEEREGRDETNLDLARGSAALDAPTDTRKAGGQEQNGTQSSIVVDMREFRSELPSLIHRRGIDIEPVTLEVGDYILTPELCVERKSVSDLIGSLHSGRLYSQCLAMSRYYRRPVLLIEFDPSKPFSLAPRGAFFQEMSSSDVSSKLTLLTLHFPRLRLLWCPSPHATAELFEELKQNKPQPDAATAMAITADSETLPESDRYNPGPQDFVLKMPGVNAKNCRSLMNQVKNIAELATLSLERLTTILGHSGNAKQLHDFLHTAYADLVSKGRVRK
T2 sequence (looked up) 2: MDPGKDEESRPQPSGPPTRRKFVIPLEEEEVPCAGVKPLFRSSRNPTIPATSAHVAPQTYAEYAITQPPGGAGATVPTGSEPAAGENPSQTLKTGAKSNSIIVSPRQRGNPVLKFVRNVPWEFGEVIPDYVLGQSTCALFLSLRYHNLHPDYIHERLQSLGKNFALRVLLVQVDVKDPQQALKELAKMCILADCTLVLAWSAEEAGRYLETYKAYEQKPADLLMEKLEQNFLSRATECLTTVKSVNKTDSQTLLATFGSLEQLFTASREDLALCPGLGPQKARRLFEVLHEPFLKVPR

T3: XPF-ERCC1 with XPF R690S (XE RS) (UniProt Q9QZD4)
T3 sequence 1: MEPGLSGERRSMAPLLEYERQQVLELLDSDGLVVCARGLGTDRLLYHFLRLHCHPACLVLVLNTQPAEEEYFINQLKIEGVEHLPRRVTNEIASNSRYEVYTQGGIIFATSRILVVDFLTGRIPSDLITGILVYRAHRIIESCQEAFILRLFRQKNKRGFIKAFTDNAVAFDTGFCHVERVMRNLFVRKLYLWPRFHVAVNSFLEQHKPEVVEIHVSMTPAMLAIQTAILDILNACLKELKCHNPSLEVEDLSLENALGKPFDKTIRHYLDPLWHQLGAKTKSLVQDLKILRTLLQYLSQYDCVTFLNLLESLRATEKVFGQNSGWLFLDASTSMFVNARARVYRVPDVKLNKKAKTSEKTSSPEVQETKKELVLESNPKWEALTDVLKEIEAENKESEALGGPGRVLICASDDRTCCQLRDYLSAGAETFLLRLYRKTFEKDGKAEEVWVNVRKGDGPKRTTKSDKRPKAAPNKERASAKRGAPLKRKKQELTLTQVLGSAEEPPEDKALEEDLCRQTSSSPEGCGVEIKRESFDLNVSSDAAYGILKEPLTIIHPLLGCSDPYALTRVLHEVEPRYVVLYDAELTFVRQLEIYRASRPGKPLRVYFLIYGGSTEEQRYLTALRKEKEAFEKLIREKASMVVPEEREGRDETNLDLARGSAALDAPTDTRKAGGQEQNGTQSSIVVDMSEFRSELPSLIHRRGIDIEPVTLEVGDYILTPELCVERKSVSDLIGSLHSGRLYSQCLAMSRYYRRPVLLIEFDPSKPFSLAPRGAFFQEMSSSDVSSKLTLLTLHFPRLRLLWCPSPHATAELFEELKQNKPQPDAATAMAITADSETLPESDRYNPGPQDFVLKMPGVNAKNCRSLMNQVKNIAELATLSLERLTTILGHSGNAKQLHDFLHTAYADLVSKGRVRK
T3 sequence 2: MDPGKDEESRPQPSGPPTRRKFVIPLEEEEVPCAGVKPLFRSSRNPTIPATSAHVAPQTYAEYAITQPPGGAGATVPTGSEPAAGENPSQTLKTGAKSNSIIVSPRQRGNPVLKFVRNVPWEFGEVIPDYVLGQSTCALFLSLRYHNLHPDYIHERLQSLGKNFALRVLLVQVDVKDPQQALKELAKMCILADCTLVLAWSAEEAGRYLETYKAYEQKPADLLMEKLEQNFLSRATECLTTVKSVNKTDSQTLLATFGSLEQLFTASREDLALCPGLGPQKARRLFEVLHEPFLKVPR

T4: XPF-ERCC1 with XPF D688A (XE DA) (UniProt Q9QZD4)
T4 sequence 1: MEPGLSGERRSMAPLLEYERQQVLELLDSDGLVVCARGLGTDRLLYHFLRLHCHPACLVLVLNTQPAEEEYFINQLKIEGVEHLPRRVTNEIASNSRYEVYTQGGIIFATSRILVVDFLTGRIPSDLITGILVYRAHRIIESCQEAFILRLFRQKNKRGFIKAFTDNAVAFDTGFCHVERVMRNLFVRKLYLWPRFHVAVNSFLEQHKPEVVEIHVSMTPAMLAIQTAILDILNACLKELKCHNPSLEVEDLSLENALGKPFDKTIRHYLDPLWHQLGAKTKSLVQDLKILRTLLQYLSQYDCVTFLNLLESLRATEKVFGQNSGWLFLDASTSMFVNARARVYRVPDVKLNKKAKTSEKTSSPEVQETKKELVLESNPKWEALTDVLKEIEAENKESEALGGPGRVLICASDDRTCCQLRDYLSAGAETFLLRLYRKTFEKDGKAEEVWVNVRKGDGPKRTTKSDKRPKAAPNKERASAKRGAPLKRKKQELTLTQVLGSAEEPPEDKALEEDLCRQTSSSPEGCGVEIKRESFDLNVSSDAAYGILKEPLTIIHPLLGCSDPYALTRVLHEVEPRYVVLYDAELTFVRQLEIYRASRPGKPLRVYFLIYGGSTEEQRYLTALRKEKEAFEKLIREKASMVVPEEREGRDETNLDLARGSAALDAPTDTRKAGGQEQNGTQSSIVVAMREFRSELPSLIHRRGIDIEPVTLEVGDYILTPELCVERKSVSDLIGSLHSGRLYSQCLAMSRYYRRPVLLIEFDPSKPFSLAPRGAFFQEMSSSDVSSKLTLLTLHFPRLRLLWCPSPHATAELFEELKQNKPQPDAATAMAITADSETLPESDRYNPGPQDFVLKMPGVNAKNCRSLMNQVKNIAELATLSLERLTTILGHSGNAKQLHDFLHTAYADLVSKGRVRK
T4 sequence 2: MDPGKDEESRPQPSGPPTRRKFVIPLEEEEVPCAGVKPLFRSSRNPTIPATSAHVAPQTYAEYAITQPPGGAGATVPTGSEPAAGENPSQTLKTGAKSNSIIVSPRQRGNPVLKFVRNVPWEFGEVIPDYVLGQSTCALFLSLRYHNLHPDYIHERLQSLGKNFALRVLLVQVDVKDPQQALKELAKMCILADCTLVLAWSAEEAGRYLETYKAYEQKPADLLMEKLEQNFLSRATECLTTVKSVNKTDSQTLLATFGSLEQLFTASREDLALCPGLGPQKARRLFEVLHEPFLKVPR


Assays:
[1] = target: Full-length FLAG-tagged SLX4 (mouse) (UniProt Q6P1D7); assay: co-IP; anti-FLAG immunoprecipitation from Slx4f3/f3 MEFs expressing FLAG-SLX4 or FLAG-mini-SLX4; western blot
[2] = target: T1, FLAG-tagged mini-SLX4 (SLX4 1-758) (mouse); assay: as above
[3] = target: T2, XPF-ERCC1 nuclease (XE), recombinant; assay: co-purification of a complex expressed in insect cells; complex expressed in insect cells and purified in several steps; Coomassie gel and western blot of the purified complexes
[4] = target: T3, XPF-ERCC1 with XPF R690S (XE RS); assay: as above
[5] = target: T4, XPF-ERCC1 with XPF D688A (XE DA); assay: as above
[6] = target: T2, XPF-ERCC1 nuclease (XE), recombinant; assay: SEC; analytical gel filtration of the purified SXE complex, with Coomassie gels of the fractions; both purified

Row | binding [1] | binding [2] | binding [3] | binding [4] | binding [5] | binding [6] | Binder
1 | binds | binds |  |  |  |  | endogenous XPF-ERCC1 (complex, UniProt Q9QZD4 1-917; P07903 1-298) chain 1: MEPGLSGERRSMAPLLEYERQQVLELLDSDGLVVCARGLGTDRLLYHFLRLHCHPACLVLVLNTQPAEEEYFINQLKIEGVEHLPRRVTNEIASNSRYEVYTQGGIIFATSRILVVDFLTGRIPSDLITGILVYRAHRIIESCQEAFILRLFRQKNKRGFIKAFTDNAVAFDTGFCHVERVMRNLFVRKLYLWPRFHVAVNSFLEQHKPEVVEIHVSMTPAMLAIQTAILDILNACLKELKCHNPSLEVEDLSLENALGKPFDKTIRHYLDPLWHQLGAKTKSLVQDLKILRTLLQYLSQYDCVTFLNLLESLRATEKVFGQNSGWLFLDASTSMFVNARARVYRVPDVKLNKKAKTSEKTSSPEVQETKKELVLESNPKWEALTDVLKEIEAENKESEALGGPGRVLICASDDRTCCQLRDYLSAGAETFLLRLYRKTFEKDGKAEEVWVNVRKGDGPKRTTKSDKRPKAAPNKERASAKRGAPLKRKKQELTLTQVLGSAEEPPEDKALEEDLCRQTSSSPEGCGVEIKRESFDLNVSSDAAYGILKEPLTIIHPLLGCSDPYALTRVLHEVEPRYVVLYDAELTFVRQLEIYRASRPGKPLRVYFLIYGGSTEEQRYLTALRKEKEAFEKLIREKASMVVPEEREGRDETNLDLARGSAALDAPTDTRKAGGQEQNGTQSSIVVDMREFRSELPSLIHRRGIDIEPVTLEVGDYILTPELCVERKSVSDLIGSLHSGRLYSQCLAMSRYYRRPVLLIEFDPSKPFSLAPRGAFFQEMSSSDVSSKLTLLTLHFPRLRLLWCPSPHATAELFEELKQNKPQPDAATAMAITADSETLPESDRYNPGPQDFVLKMPGVNAKNCRSLMNQVKNIAELATLSLERLTTILGHSGNAKQLHDFLHTAYADLVSKGRVRK chain 2: MDPGKDEESRPQPSGPPTRRKFVIPLEEEEVPCAGVKPLFRSSRNPTIPATSAHVAPQTYAEYAITQPPGGAGATVPTGSEPAAGENPSQTLKTGAKSNSIIVSPRQRGNPVLKFVRNVPWEFGEVIPDYVLGQSTCALFLSLRYHNLHPDYIHERLQSLGKNFALRVLLVQVDVKDPQQALKELAKMCILADCTLVLAWSAEEAGRYLETYKAYEQKPADLLMEKLEQNFLSRATECLTTVKSVNKTDSQTLLATFGSLEQLFTASREDLALCPGLGPQKARRLFEVLHEPFLKVPR
2 |  |  | binds | binds | binds | binds | Recombinant mini-SLX4 (1-758) (domain or fragment, mouse, UniProt Q6P1D7 1-758, looked up, mouse SLX4, residues 1-758; source: insect cells, purified (in complex with XPF-ERCC1, or alone)) MVPESAPNGNSQPLPSCFTTTGVPSPSKPRVSELVLQRMKQFKRADPERLRHASEESPQKTALGDDVPRSPPEETVGENEYKLDATDSDAAMALALQQEFRREEASSHHDSLEEKGLFFCQMCQKNLSAMNVTRREQHVNRCLDEAEKAQRPASPRIPDCPICGKPFLTTKSRISHLKQCAVRMEVGPQLLLQAVRLQTAQPEVDGSPQVPSFSNNVGGLKRKGVTTKREPRRRKVNKPEAPSEDLLVAMALSRSEVEHCPVVPPLRLENAFSEKIRLGAEKKSRKKRPPVCPPQLVTQDSETTGRQIEDRVAQLLSEEAELSCTPPLLASKISKEELEPAGWRARLPEGKRNFLWELSALTGAWAEESFYTVGLFPPIVSQCPSKEPQLPLELPKQGEPSPRRPPASQSSLPVSHSPKIRLLSSSQRERQALQDLVDLAVEGLSSSPQPGSRGVPTGLDLVPSSLPLTGFVLPCKKTLKKDDSASLSLGLLVTDFGAMVNNPHLSDVQFQLDSGEVLYAHKFVLYARCPLLIQYVSTESFSSEEDGDLTQRALLSDVSSEAAHAFLNYLYMADTDMPPSLVPDLRSLALRFGVSDLVQLCEQVPAVVDLEGEQPEETSEDCESRAETFLELLRSVWVDNEEEVETLLKPELCEEERERVNEAEMEEIYEFAATQRKLLQWGRAADPDGSTNPHGEDGAVSEPSLAGVQSNRQLENTEHMESSGLEKEEALASWEQEGHSTPLQDQCPDWAGKAEAQD
